# Measurements reported in PubChem BioAssay AID1224830 (NIAID, 2016).
# Aim: 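Host factors that control LPS-induced TNF expression in human macrophages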 (primary screen)
# Cell system: human THP-1 monocytic leukaemia cells, TNF dual-luciferase reporter clone, PMA-differentiated to macrophage-like cells
# Reagents: siRNA pool against human genes, 50 nM
# Duration: LPS for 4 h, given about 3 days after siRNA transfection
# Challenge: bacterial LPS (TLR4 ligand), 10 ng/ml
# Read-out: 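Ratio of firefly to renilla light, scaled to the plate median and expressed as a robust z-score per replicate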
# Scale: TNF reporter robust z-score: higher = stronger TNF reporter response to LPS
# Call rule: 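a well is active when its z-score exceeds 2.8 or falls below -1.5; control wells carry no call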
# The whole screen tested about 18,000 reagents; this is a part drawn at random. Over the whole deposit, about 2,900 (16%) were called active. 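Calls are made per well; low scores hint the gene aids the LPS response, high scores that it dampens it.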 Repeated entries: four replicate wells of each siRNA pool.
gene,TNF reporter robust z-score,outcome
KRTAP19-1,0.44,inactive
KRTAP19-1,0.4,inactive
KRTAP19-1,-0.05,inactive
ZMYM4,-0.86,inactive
ZMYM4,-0.16,inactive
ZMYM4,1.34,inactive
ZMYM4,1.17,inactive
EXOC7,-0.58,inactive
EXOC7,-1.03,inactive
EXOC7,-1.28,inactive
EXOC7,-0.59,inactive
IRAK1BP1,-0.08,inactive
IRAK1BP1,-0.09,inactive
IRAK1BP1,0.34,inactive
IRAK1BP1,0.91,inactive
EXOSC1,1.49,inactive
EXOSC1,0.53,inactive
EXOSC1,0.48,inactive
EXOSC1,2.03,inactive
GPX1,-0.63,inactive
GPX1,-1.52,active
GPX1,-0.57,inactive
GPX1,-0.7,inactive
TSG101,-0.67,inactive
TSG101,-0.56,inactive
TSG101,-1.17,inactive
TSG101,-0.84,inactive
MAN2C1,-0.47,inactive
MAN2C1,-0.82,inactive
MAN2C1,-0.63,inactive
MAN2C1,-0.7,inactive
CRMA,-0.38,inactive
CRMA,0.68,inactive
CRMA,-0.75,inactive
CRMA,0.37,inactive
MAGEA11,0.07,inactive
MAGEA11,1.82,inactive
MAGEA11,0.7,inactive
MAGEA11,2.15,inactive
CPNE7,-0.82,inactive
CPNE7,0.59,inactive
CPNE7,0.49,inactive
CPNE7,1.64,inactive
CCDC190,0.4,inactive
CCDC190,-0.28,inactive
CCDC190,-0.34,inactive
CCDC190,0.47,inactive

Laid out differently: 8 of the entries above.
| gene | TNF reporter robust z-score | outcome |
| --- | --- | --- |
| IRAK1BP1 | -0.08 | inactive |
| IRAK1BP1 | -0.09 | inactive |
| IRAK1BP1 | 0.34 | inactive |
| IRAK1BP1 | 0.91 | inactive |
| EXOSC1 | 1.49 | inactive |
| EXOSC1 | 0.53 | inactive |
| EXOSC1 | 0.48 | inactive |
| EXOSC1 | 2.03 | inactive |
